# Results as given in the supplement of paper PMC5949888.
# Most values lie at the floor of the assay. Slopes are relative: functional sequences can read slightly below zero.
# Tested on: Saccharomyces cerevisiae PS128 hsf1 delta, HSF1(1-493) fusion
# Assay: growth estimate (transactivation domain function in HSF1 fusion, heat-shock survival) (a.u. (slope of normalised read count over time)); higher = stronger growth at 37°C, i.e. more transactivation activity
# Conditions: library: random library
row,Substance,growth estimate
1,ASESFRVQGRKAGRHANSTP,< -0.25
2,IYTGCCGILLRNHLGWDAKV,-0.203
3,GCHVSHRLEKYWT,< -0.25
4,VIYMH,< -0.25
5,GEREDGQWVSCSTRLNNAHR,< -0.25
6,VQPNG,< -0.25
7,PTTKRGGQ,< -0.25
8,GRCPDYLQEQLAY,< -0.25
9,WSGSCKT,-0.246
10,SAE,< -0.25
11,SLWRIPYR,< -0.25
12,GLWCFA,-0.248
13,APLFTRWAVSSRQNADRVYP,< -0.25
14,VFTHDGVGSMGSTGSGRRRC,< -0.25
15,FMRKVKIRYRGRYRHRVPDV,< -0.25
16,EWSAWYTRNLPTEENAVLWH,< -0.25
17,EQSACSGQR,< -0.25
18,FPCDERC,< -0.25
19,EEDVV,< -0.25
20,AYRRLKRLD,< -0.25
21,LSEEPGPVTRSFGLGQRACR,< -0.25
22,RWRPGTAGGSGHN,-0.246
23,DALHGQAHLGTLLTGSIGLA,< -0.25

row,Substance,growth estimate
1,LQYSSQNVLNGTFKFVAAYA,< -0.25
2,KSEGGDRAYHIARKELA,< -0.25
3,WMESGDIA,< -0.25
4,SLIS,-0.203
5,CAARGS,< -0.25
6,LVRLLSGQSWNQQVKLNR,< -0.25
7,PGSCYRADANVLSHRHVDVA,< -0.25
8,VTNRYGLALLLAGVLCIRVI,-0.246
9,GIPGG,< -0.25
10,PETPLVRRFRRRCCGGDAEC,< -0.25
11,ITLRCRAS,< -0.25
12,GINTVEDALKYGGACGSMSV,< -0.25
13,TWSILPQCRETRCLPLRATR,< -0.25
14,PFAGCALLPGQCVGAKHTYV,< -0.25
15,KTRCGKEAHTNRVF,< -0.25
16,KRQR,< -0.25
17,VRTNLLNLLNGYKLDWIGRP,< -0.25
18,VTHKIVTRGCQTNLVDSRPI,< -0.25
19,IFQHRRQP,< -0.25
20,WEHETRIRPASVWCHLTKCA,< -0.25
21,VASLPVRRLVLSSRRIANFV,< -0.25
22,PNFAPRS,< -0.25
23,LRSEPNCFAIVLFGGTPV,< -0.25

row,Substance,growth estimate
1,VGERDWTHVDV,< -0.25
2,QSLKWHRLSGDHFVVPRH,< -0.25
3,LKSRRSHRKENAGGQRPLLK,< -0.25
4,RQGEQGTPVRVGPGNRYAVK,< -0.25
5,GQVTVILNSSEVREFLSPQR,< -0.25
6,RYLYRKWSY,< -0.25
7,LRPVFLKGTLGM,< -0.25
8,HDRYLSVGLPLLHVAKGSTI,< -0.25
9,RQCCGGSFLLMLAYSI,< -0.25
10,RVWKSLG,< -0.25
11,QTGDVRARSLLCDAIFARTK,< -0.25
12,RTDECSPKL,< -0.25
13,FLEFFSLYVGNEIR,< -0.25
14,VMSLLYALLLRPHRGEKSTG,< -0.25
15,SKMVLVGLAPRSRSTETCLR,< -0.25
16,ESANYGLHGGLPDRWKTTAR,< -0.25
17,RATFVSIGRRDLGA,< -0.25
18,LERPLRPLRAMLIWRSKVIN,< -0.25
19,FDRKFIVSLIWVILQGTSNL,< -0.25
20,IGPCEPAIQAISRS,< -0.25
21,HATAP,< -0.25
22,VNLDIMYSGKTGGMQRSNGA,< -0.25
23,PSARVPCTTYVPSMAHSHRA,< -0.25

row,Substance,growth estimate
1,CGGCGPSYRGLVVQNKYKDR,< -0.25
2,REKGLNFHLHNRDQPL,< -0.25
3,NYTVIFRSMSDKSRAYRS,< -0.25
4,TYNDVMR,< -0.25
5,IKDCSYSLAPILIRVFGIRG,< -0.25
6,TTIPLDHFITLWPGMAGRET,< -0.25
7,VRRV,< -0.25
8,STRSSVS,< -0.25
9,VRLKARLWAYKEGQSIVGPA,< -0.25
10,IPAKRFALSGLWFVLETQIG,< -0.25
11,DLNNQPLGPN,< -0.25
12,RFYGEYKLNRG,< -0.25
13,AHSVPPVSLAAGIRGTMRPL,< -0.25
14,SIWGVRHGPPGLRGRGKA,< -0.25
15,CIGPVLVCTVSNTR,< -0.25
16,SRLPVCARCRSLTQDRPDER,< -0.25
17,ESSSGGVCNGLTK,< -0.25
18,ILDRSVVINSSDSPAVVR,< -0.25
19,DHGICLVRWIMLFPGPCRED,< -0.25
20,KRGGIEPSIMYALTRSRTGH,< -0.25
21,LTRFNRGSASLHSRLTSSDP,-0.183
22,RSDLRSQLGMYQHWVGGHAT,< -0.25
23,VSESEHQHPWSEIISPGRQL,< -0.25

# Reformatted: entries from further up.
row | Substance | growth estimate
18 | ILDRSVVINSSDSPAVVR | < -0.25
19 | DHGICLVRWIMLFPGPCRED | < -0.25
20 | KRGGIEPSIMYALTRSRTGH | < -0.25

# Reprinted from the listing (3 entries):
row,Substance,growth estimate
12,RFYGEYKLNRG,< -0.25
13,AHSVPPVSLAAGIRGTMRPL,< -0.25
14,SIWGVRHGPPGLRGRGKA,< -0.25

# Following part

row,Substance,growth estimate
1,RQLIS,< -0.25
2,YVGLSLLGVLGIFWRCEPPY,< -0.25
3,SLSTHTYIGKFQRFLSPDEP,< -0.25
4,RRMVINVKGKNHAP,< -0.25
5,ELDWDRGLQWYASNLV,0.358
6,SSCPALRLNGPPSPIGQ,< -0.25
7,EVTLDRPVREGPVAYSKSR,< -0.25
8,SGGIRLSVQQARASWCVVLP,< -0.25
9,QYRPHAREVVGPNKGFCHG,< -0.25
10,HVSAGHRPCQLRRKERGKRS,< -0.25
11,KYGSTRLFAGTI,< -0.25
12,LALDRLSWRLLLFVLSLAVP,< -0.25
13,ICLSFLRRSGAASRNVAR,-0.243
14,GVN,< -0.25
15,LRPNRGKLSTSFVWCP,< -0.25
16,ESHRGSRSPTTKEPDNYRC,< -0.25
17,IKDSQSSIKAGFA,< -0.25
18,HSQDSRRRSASLRIKLEVSP,< -0.25
19,GGAKLSCARLVRGSQAGALG,< -0.25
20,VFGCLELGFISSGRTLTVLH,< -0.25
21,GHMSTSLVGRRGLRRL,< -0.25
22,RQFGLTRRASHILPATNLFA,< -0.25
23,HCLGAYYAYPRFTMLISFHV,< -0.25

# Part of the list above in another layout:
row	Substance	growth estimate
14	GVN	< -0.25
15	LRPNRGKLSTSFVWCP	< -0.25

# (cont.)

row,Substance,growth estimate
1,LAVFDCRGSVTSKFF,< -0.25
2,NNAWTSSMACAQGRLSPSTM,< -0.25
3,LFSGGRARFNQVERLWDRCR,< -0.25
4,AAIRCYLLSHAQL,-0.25
5,IRGRIYDPHFYSVTDSALAR,< -0.25
6,LFDIHLP,< -0.25
7,TDPRVQGI,< -0.25
8,YPFSLNIMVRMS,< -0.25
9,QRDIGCLKAKGGRAFSQGWD,< -0.25
10,SFTEFVRVPRVKETAEGS,< -0.25
11,SSVRRTGGAAAVAARVESPR,< -0.25
12,SAVQWV,< -0.25
13,LHTSREQVMLCR,< -0.25
14,SMMRRTV,< -0.25
15,VELSRGHQLKKRGVYLHASA,< -0.25
16,VAGTSKLL,< -0.25
17,LSGVTH,< -0.25
18,LGRGQLNTAPPDYVLR,< -0.25
19,ASMGR,< -0.25
20,RRTGRFNSVGVMMGTYRLGW,< -0.25
21,SGGGTRTQCKALVTSTSTVT,< -0.25
22,GGPPGV,< -0.25
23,LNRSTVCSLAGIGGSDWCTS,-0.248

row,Substance,growth estimate
1,DCRTYWVRGPCIQERTLIVI,< -0.25
2,GLTAVCSNS,< -0.25
3,KNLELSPDYCRQACTHFCSC,< -0.25
4,KVRKA,< -0.25
5,RTTTGPETRKRA,< -0.25
6,RDLGVKRRIALPIRHGALEC,0.0112
7,VDLG,< -0.25
8,LSIAGIPG,< -0.25
9,RVLWGPVLTRLYGLRRIKES,< -0.25
10,SVGRSQSSTYTGRTSLAGEL,< -0.25
11,PEI,< -0.25
12,YRNTTRLTVRMNYVVHDRHI,< -0.25
13,FRHIIAERAI,< -0.25
14,RKSSGLGLPAGIPWMPWALW,< -0.25
15,SWWLIVRSE,-0.198
16,DCDYGGVCPDRFERSWTG,< -0.25
17,KARGGQNAP,< -0.25
18,WRGRECTCN,< -0.25
19,HLEAHPILGLKRRHIFSRLA,< -0.25
